# Measured values from patent US5298414A (priority 1989, dated 1994).
# System: washed cells of P. putida MlO
# Type: cell-based, Pseudomonas putida MlO
# Details: P. putida MlO grown at the expense of heroin, HPLC
structure (smiles),measurement,value
CN1CC[C@]23c4c5ccc(O)c4O[C@H]2[C@@H](O)C=C[C@H]3[C@H]1C5 [morphine],metabolism by washed cells grown on heroin,readily metabolised
